From article PMC10146569
No constants are given. Whether binding was seen depends on the method and setting. In cells and extracts the contact can be indirect. These calls come from enrichment with a bait or labelling near it, and not all partners need be listed.

Chains of the proteins cited; added tags and fusions are not shown.
UniProt P03496: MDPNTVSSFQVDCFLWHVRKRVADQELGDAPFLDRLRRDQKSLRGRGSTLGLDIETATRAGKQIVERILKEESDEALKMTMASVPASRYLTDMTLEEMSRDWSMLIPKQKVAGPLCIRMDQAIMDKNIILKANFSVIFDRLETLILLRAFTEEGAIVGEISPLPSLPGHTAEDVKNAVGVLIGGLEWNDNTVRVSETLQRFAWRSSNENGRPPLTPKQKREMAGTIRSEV
UniProt P28370: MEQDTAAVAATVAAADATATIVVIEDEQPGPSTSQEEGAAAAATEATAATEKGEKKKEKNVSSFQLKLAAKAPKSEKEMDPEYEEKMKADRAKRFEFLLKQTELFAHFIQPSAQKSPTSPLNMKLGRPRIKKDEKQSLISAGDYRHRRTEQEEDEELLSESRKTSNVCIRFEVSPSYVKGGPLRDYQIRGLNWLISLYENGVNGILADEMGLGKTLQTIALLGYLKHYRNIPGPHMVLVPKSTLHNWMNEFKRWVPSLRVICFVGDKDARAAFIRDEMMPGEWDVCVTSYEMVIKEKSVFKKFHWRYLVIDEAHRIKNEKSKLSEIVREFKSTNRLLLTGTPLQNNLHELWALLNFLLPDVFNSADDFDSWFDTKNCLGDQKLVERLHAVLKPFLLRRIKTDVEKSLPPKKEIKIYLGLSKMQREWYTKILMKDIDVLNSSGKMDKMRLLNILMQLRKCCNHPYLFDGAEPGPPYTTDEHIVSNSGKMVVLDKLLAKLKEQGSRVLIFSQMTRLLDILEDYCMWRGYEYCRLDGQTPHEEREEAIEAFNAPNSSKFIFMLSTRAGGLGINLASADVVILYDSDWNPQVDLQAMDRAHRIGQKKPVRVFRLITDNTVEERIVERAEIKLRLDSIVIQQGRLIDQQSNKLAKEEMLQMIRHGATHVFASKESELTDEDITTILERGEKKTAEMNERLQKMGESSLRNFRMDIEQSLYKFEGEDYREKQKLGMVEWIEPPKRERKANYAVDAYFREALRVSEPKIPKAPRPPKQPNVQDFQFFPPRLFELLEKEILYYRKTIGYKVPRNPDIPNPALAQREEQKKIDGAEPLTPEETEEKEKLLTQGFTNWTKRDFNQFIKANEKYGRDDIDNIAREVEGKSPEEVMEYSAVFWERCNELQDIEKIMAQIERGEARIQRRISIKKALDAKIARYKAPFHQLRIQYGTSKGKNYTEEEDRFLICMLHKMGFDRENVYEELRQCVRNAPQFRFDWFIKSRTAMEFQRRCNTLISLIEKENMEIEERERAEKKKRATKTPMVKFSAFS
UniProt Q9UKM9: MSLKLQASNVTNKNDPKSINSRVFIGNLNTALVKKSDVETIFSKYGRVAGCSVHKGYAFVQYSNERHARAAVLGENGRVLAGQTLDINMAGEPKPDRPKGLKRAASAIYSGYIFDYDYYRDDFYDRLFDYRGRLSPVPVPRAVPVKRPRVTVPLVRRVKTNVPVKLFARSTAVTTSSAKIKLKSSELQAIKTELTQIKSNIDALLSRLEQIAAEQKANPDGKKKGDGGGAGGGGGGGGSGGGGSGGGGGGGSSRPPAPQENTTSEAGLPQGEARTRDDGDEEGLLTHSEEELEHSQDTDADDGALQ

Key:
[1] = target: Flag-tagged NS1 (influenza A virus (strain of the plasmid not stated; PR8/H1N1 used throughout)) (UniProt P03496); assay: affinity purification with mass spectrometry
[2] = target: viral NS1 protein of PR8/H1N1 virus in infected cells (influenza A virus A/Puerto Rico/8/34 (H1N1) (PR8)) (UniProt P03496); assay: affinity purification with mass spectrometry

| Substance | binding [1] | binding [2] |
| --- | --- | --- |
| SNF2L (from UniProt P28370 1-1042) | binds | binds |
| RALY (from UniProt Q9UKM9 1-306) | binds | binds |
